## Library screening results

Values are the deposited “Percent Effect”, in %. The record does not define 0% and 100%; most values in the screen are far below 50% and negative numbers occur (in some assays of this library far below -100). The compounds are a random part of those screened. Two or more numbers in one place are separate tests of the same structure; such repeats can differ widely.

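Viability assay of Plasmodium falciparum sporozoites; the read-out is not stated. The concentration is filed as 10 mM, unlikely as a test dose, so the dose is not known. Higher reads as lower viability (inferred: compounds with an IC50 in retests scored well above the rest). Strong results were mostly tested again. Size under these conditions: about 34,000 compounds, about 280 of them at 50% or above in at least one test.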

| # | compound | effect |
|---|---|---|
| 1 | `CC1CN(C)CCN1C(=O)c1cnc2c(cnn2C2CCCC2)c1` (stereo not given) | -13.06 |
| 2 | `CCN(Cc1cccc(NC(=O)COC)c1)C(C)=O` | -3.02 |
| 3 | `COc1ncccc1NC(=O)N(Cc1ccco1)C1CC1` | 6.035 |
| 4 | `CCC(CNC(=O)Nc1cnn(CC)c1)N1CCc2ccccc2C1` (stereo not given) | 14.32 |
| 5 | `Cc1ncc(-c2ccnc(N3CCCCCC3)n2)c(-c2cccnc2)n1` | -3.676 |
| 6 | `Cc1nc2c(c(=O)[nH]1)CCN(Cc1ccc3c(c1)CCCN3C)C2` | -7.356 |
| 7 | `Cc1cnn(CC2CN(c3ccc(C#N)cn3)CCO2)c1` (stereo not given) | 27.24 |
| 8 | `COc1ccc(OCC(=O)NS(=O)(=O)c2cc(C)ccc2C)cc1` | -0.6857 |
| 9 | `CC(O)CNCc1ccc(OCc2ccc3c(c2)OCCO3)cc1.Cl` (stereo not given) | 88.95 & 91.02 & 83.06 |
| 10 | `[H][C@]12CC[C@]([H])(CN(CC(=O)N(C)C)C1)N(Cc1cccc(Cl)c1Cl)C2` | 6.268 |
| 11 | `N#Cc1cccc(C(=O)N2CCN(c3ncccn3)CC2)c1` | 0.08977 |
| 12 | `Cc1ccccc1C(C(=O)O)N(C)CC1CCOCC1` (stereo not given) | -26.36 |
| 13 | `O=C(CCc1ccsc1)N1CCC(N2CCNC2=O)CC1` | -11.96 & -0.8503 & -4.946 |
| 14 | `Cc1nnc(Nc2cccc(C3CCN(Cc4ncc[nH]4)CC3)n2)s1` | 8.819 |
| 15 | `Cc1cnn(CC2CN(CC(=O)Nc3nccs3)CCO2)c1` (stereo not given) | 2.416 |
| 16 | `CC(=O)N1CCCC1c1cc(Nc2nnc(C)s2)nc(C)n1` (stereo not given) | 10.26 |
| 17 | `Cc1c(NC(=O)CN2CCC(Oc3cnccn3)CC2)cnn1C` | -13.81 |
| 18 | `Cn1cc(CN2CCC(F)(F)C3(CCN(c4cccnc4)C3)C2)cn1.O=C(O)C(F)(F)F.O=C(O)C(F)(F)F` (stereo not given) | 4.387 |
| 19 | `NC(=O)CC1CC2(CCNCC2)c2cc(F)ccc21.O=C(O)C(F)(F)F` (stereo not given) | 8.608 |
| 20 | `O=C(c1cn[nH]c1)N1CCC2(CCCN(Cc3ccc(F)c(F)c3)C2)C1` (stereo not given) | 6.217 |
| 21 | `CCOCCC(=O)N1CCCCC1CCn1cccn1` (stereo not given) | -14.11 & -10.7 |
| 22 | `COCCN1CCN(Cc2ccoc2)Cc2cccnc21` | -1.308 |
| 23 | `Cn1ncc2c(=O)[nH]c(CN3CCCC3CCc3ccccc3)nc21` (stereo not given) | 3.488 |
| 24 | `CCc1n[nH]c(C2CN(Cc3csc(COC)n3)CCO2)n1` (stereo not given) | -4.329 |
| 25 | `CNC(=O)C1Cn2ccnc2C2(CCN(C(=O)NC3CCCC3)CC2)O1` (stereo not given) | 11.26 |
| 26 | `O=C(c1ccc(-n2cccc2)c(F)c1)N1CCCN2CCCC2C1` (stereo not given) | -1.173 |
| 27 | `O=C(O)C(F)(F)F.[H][C@@]12CN(C(=O)CCOC)C[C@]1([H])C(=O)N(Cc1cccc(C)n1)C2` | 7.262 |
| 28 | `CC(C)Oc1cccc(C(=O)C2CCCN(S(=O)(=O)C(C)C)C2)c1` (stereo not given) | -28.72 & -28.47 & -7.348 |
| 29 | `CCn1ccnc1CN1CCCC1c1noc(C2CC2)n1` (stereo not given) | 27.54 |
| 30 | `CC(C)(C)C(O)CN1CCN(CC(=O)NCC(F)(F)F)CC1` (stereo not given) | -3.448 |
| 31 | `[H][C@@]12CCN(C(=O)OCc3ccccc3)C[C@@]1([H])OC(CO)C2` (stereo not given in full) | -1.107 |
| 32 | `Cc1cccc(C(=O)N2CCCC(Cc3cncc4ccccc34)C2)n1` (stereo not given) | 8.258 |
| 33 | `Cc1cnn(CC(C)NCc2ccc(-n3cccn3)cc2)c1` (stereo not given) | -15.21 & -9.01 & 12.41 |
| 34 | `Cc1nc2c(c(NCC(=O)NC(C)C)n1)Cc1ccccc1OC2` | -5.909 |
| 35 | `O=C(O)C(F)(F)F.O=C(O)C(F)(F)F.O=C(O)C(F)(F)F.[H][C@@]12CO[C@H](CNc3ncccn3)[C@]1([H])CCN(Cc1ccccn1)C2` | 8.094 |
| 36 | `Cc1nc(C(=O)N2CCN(S(C)(=O)=O)CC2)c(-c2ccccc2)s1` | -2.452 |
| 37 | `Cl.NC(=O)CCc1cccc(C2CCNCC2)n1` | 9.974 |
| 38 | `CC(NC(=O)CCOc1ccccc1Cl)c1nnc2n1CCC2` (stereo not given) | -4.64 |
| 39 | `O=C(Nc1cc(-c2ccncc2)no1)C1CCC1` | -6.964 |
| 40 | `CC(Oc1ccccc1C(F)(F)F)C(=O)NS(=O)(=O)C(C)C` (stereo not given) | -0.6764 |
| 41 | `CCOC1CCC2(CCN(C(=O)c3csnn3)CC2)c2ccccc21` (stereo not given) | 6.079 |
| 42 | `O=C(c1cnco1)N1CCCC(Cc2nccs2)C1` (stereo not given) | -7.538 |
| 43 | `CCc1nc(N2CCOCC2)ncc1C(=O)NC(c1cccs1)C(C)C` (stereo not given) | 5.231 |
| 44 | `Cl.NCC1CCCCN1C(=O)Cc1ccc(F)c(F)c1` (stereo not given) | -6.857 |
| 45 | `CCN1CCCC(c2c(-c3ccccc3)ncn2Cc2csc(N)n2)C1` (stereo not given) | 5.223 |
| 46 | `Cn1ccc(C(=O)N2CCC3(CCN3c3ncccn3)C2)n1.O=C(O)C(F)(F)F` (stereo not given) | -1.56 |
| 47 | `[H][C@@]12COC[C@]1(COc1ccc(C#N)cn1)CN(c1cc(OC)ncn1)C2` | -8.457 |
| 48 | `COc1c(CNCCNC(=O)Cc2ccc(F)cc2)c(C)nn1C` | 9.44 |
| 49 | `O=C(NCCc1nnc2n1CCC2)NCC1(c2cccc(F)c2)CC1` | 1.466 |
| 50 | `CCc1nnc(CN2CCOC(Cn3cccn3)C2)o1` (stereo not given) | 11.86 |
| 51 | `COc1cc(N2CC[C@@H](O)[C@@H]2Cc2ccccc2)ncn1` | -16.77 |
| 52 | `CN(C)CCN1CCCC12CCN(C(=O)c1ccco1)CC2.O=C(O)C(F)(F)F.O=C(O)C(F)(F)F` | -23.68 & -11.37 & -22.95 |
| 53 | `CCOCCCC(=O)N(C)C(c1cccc(F)c1)c1ccccn1` (stereo not given) | 4.671 |
| 54 | `Cc1cc(C)n(CC2CCCN2C(=O)CCCNc2ncccn2)n1` (stereo not given) | -7.914 |
| 55 | `Cc1ccc(CC(=O)N2CCN(C3CCOC3=O)CC2)cc1` (stereo not given) | -3.284 |
| 56 | `CC(O)CN1CCN(C(=O)c2ccc(Br)o2)CC1` (stereo not given) | 1.979 |
| 57 | `O=C(O)c1ccccc1-n1cnc(CN2CCc3ccccc32)c1` | 6.587 |
| 58 | `O=C(Cc1ccccc1F)N1CCCCC1c1ccn2ccnc2n1` (stereo not given) | 0.9993 |
| 59 | `CN1CCOC(CNCCOc2cccc(C#N)c2)C1` (stereo not given) | -1.754 |
| 60 | `O=C(O)C(F)(F)F.[H][C@@]12CCC(=O)N(CCOC)[C@]1([H])CCN2Cc1cccc(C#N)c1` | 2.491 |
| 61 | `Cc1ncc(CNC(=O)CCc2c(C)noc2C)c(C2CCCN2C)n1` (stereo not given) | 9.194 |
| 62 | `Nc1nc(N2CCCCCC2)ncc1C(=O)NCc1ccc(F)c(Cl)c1` | 5.403 |
| 63 | `COc1ccc2[nH]cc(-c3ccnc(N4CCC(C)CC4)n3)c2c1` | -10.75 |
| 64 | `Cc1nn(C)c2c(N3CCN(C)CC3)nc(C3CC3)nc12` | -20.54 & -14.8 |
| 65 | `Cc1cccc(OCC(O)CN2CCN(c3nccs3)CC2)c1` (stereo not given) | -6.127 |
| 66 | `CC(C)n1ccnc1CN1CCCN(C(=O)CC2C=CCC2)CC1` (stereo not given) | -11.22 |
| 67 | `CC(C)CN1C[C@H](COCc2ccccc2)Oc2ncccc2C1=O` | -28.34 |
| 68 | `COC(=O)C1CCCCN1Cc1cccc(C(=O)NCc2ccco2)c1` (stereo not given) | -3.429 |
| 69 | `O=C(NC[C@]1(O)CCN(Cc2ccsc2)C[C@H]1O)c1c[nH]cn1` | 5.834 |
| 70 | `Cc1nc(C)c(C(C)NC(=O)NCCNc2cccc(F)c2C#N)s1` (stereo not given) | -1.523 |
| 71 | `O=C(O)[C@@H]1CCN(C(=O)c2cscn2)[C@@H]1c1ccc(F)cc1` | 5.307 |
| 72 | `C1CC(c2noc(C3CC3)n2)N(Cc2nnc(C3CC3)o2)C1` (stereo not given) | -7.596 |
| 73 | `Cn1cnc2c1CCN(CCS(=O)(=O)c1ccccc1)C2` | -19.85 |
| 74 | `CC(O)CN1CCC(CNCc2c[nH]nc2C(C)(C)C)CC1` (stereo not given) | 5.6 |
| 75 | `Cc1cc(C[S+]([O-])CC(=O)NCc2ccccc2)no1` (stereo not given) | -4.034 |
| 76 | `[H][C@@]12CN(Cc3cccnc3OC)C[C@]1([H])CN(c1ncccn1)C2` | 14.3 |
| 77 | `[H][C@]12CC[C@]([H])(CN(Cc3ccccc3C#N)C1)N(CC1CCC1)C2=O` | -6.579 |
| 78 | `Cc1cccc(-n2ncc(C(=O)N3CCn4c(C)nnc4C3)c2C)c1` | 16.49 & 4.808 & 6.706 |
| 79 | `CN(CCCc1cnn(C)c1)C(=O)C1CCOC1` (stereo not given) | 2.243 |
| 80 | `COc1ccccc1CC(C)(C)NC(=O)CN(C)C(C)C` | -2.305 |
| 81 | `CC(C)c1cc(N2CCC(NS(C)(=O)=O)CC2)n2nccc2n1` | -7.607 |
| 82 | `O=C(O)C(F)(F)F.[H][C@@]12CN(CCO)C[C@@]1([H])N(Cc1cccc(C)c1)C(=O)CO2` | -2.255 |
| 83 | `O=C(O)C(F)(F)F.O=C(O)C(F)(F)F.[H][C@@]12COC[C@]1(CNS(=O)(=O)CC)CN(Cc1ccccn1)C2` | 13.13 |
| 84 | `Cc1nc(N2CCOCC2)nc2c1CN(CC(=O)N(C)C)CC2` | 1.649 |
| 85 | `CC(C)NC(=O)N1CCCC2(CCN(c3ccccc3)C2=O)C1` (stereo not given) | 10.07 |
| 86 | `COCC(=O)N1CCCC(C)(c2nncn2C)C1` (stereo not given) | 4.813 |
| 87 | `Cc1cnn(C2CCCN(C(=O)c3ccc(N(C)C)nn3)C2)c1` (stereo not given) | 5.724 |
| 88 | `O=c1n(CCSCc2ccccc2Cl)nc2ccccn12` | -6.02 |
| 89 | `CCn1cnnc1CNC(=O)N1CCN(C(C)C)CC1` | 4.728 |
| 90 | `Cc1noc(C)c1CN1CC2(CCN(C(=O)c3c[nH]cn3)C2)CC1=O` (stereo not given) | -4.221 |
| 91 | `O=C(O)C(F)(F)F.[H][C@@]12CCN(Cc3cccs3)C[C@]1(C(=O)N1CCCO1)CCO2` | -5.835 & 19.73 & -23.3 |
| 92 | `CCOc1ccc(C#N)cc1NCC(=O)NC1(C#N)CCCC1` | 12.08 |
| 93 | `Cc1nc2n(n1)CC(NCc1cc(Cl)c3c(c1)OCCO3)CC2` (stereo not given) | 4.125 |

From ChEMBL document CHEMBL3988442, “University of Dundee, Small-Polar-MMV Screening Library” (2021).